# For at least one compound, name, drawing or mass did not settle the structure.
# System: metastatic lesions in bone
# Assay: Absorbed radiation dose estimates by direct measurements of radioactivity in bone metastases
# Type: in vivo
# Conditions: after 4 mCi (148 MBq), 120 μCi/mg of strontium
# Source text: Absorbed radiation dose estimates for metastatic lesions in bone, obtained by direct measurements of radioactivity in bone metastases after the administration of 4 mCi (148 MBq) of ^89Sr chloride at standard specific activity (120 μCi [4.44 MBq]/mg of strontium), varied from 1.3 to 64 Gy, with a mean of 18±16 Gy. The average total absorbed dose in normal bone sites was 1.1±0.4 Gy. The metastases (target) to normal bone (non-target) dose ratio in individual samples varied from 8±4 to 40±25. If compared to absorbed radiation dose provided by external beam radiotherapy, the absorbed radiation dose delivered by ^89Sr chloride should be large enough to produce a therapeutic effect on the metastases. But absorbed radiation doses delivered by ^89Sr chloride may not be compared with those delivered by external beam radiotherapy because the different dose rates used in each methodology. External beam radiotherapy delivers very high dose rates in a very short time, while ^89Sr chloride provides very low dose rates during a long period. These differences reduce the biological effect of a given dose of ^89Sr because there is repair of sublethal damage.
smiles,measurement,value
"[89Sr+2].[Cl-].[Cl-] [^89Sr Chloride (120 μCi/mg Sr), ^89Sr chloride]",metastases (target) to normal bone (non-target) dose ratio in individual samples,8±4 to 40±25
